Results as given in PubChem BioAssay AID280 (DTP/NCI, 2004).
The list does not hold the whole screen: it gathers tests that were run many times, whatever their T/C, doses with no T/C, and many T/C values between a quarter and a half above the control. Other doses and runs of a compound stand elsewhere. T/C gives the treated animals as a percentage of the vehicle group. Some entries give survivors of the animals treated and no T/C: the source holds a T/C of zero for them, seemingly a mark for toxic or unscored doses. Some doses without a T/C left all or most animals alive at the check, yet need not have been tolerated: the source hardly ever lists a survival T/C far under the control, and the zero likely stands for such cases as well. Survivors were counted at the toxicity check, usually on the fifth day, unless a day is given; later deaths do not show. Schedules are NCI's codes, read here as Q, the interval in days (D) or hours (H), X, the number of doses. Some entries were tested several times; their values stand side by side, smallest first. For survival time, this PubChem deposit counts one and a half times the control or more as active, and values a quarter to a half above the control carry no call in these data; other NCI protocols may use other cut-offs. Some T/C values are followed by the survivors on the day toxicity was checked, most often the fifth; without a count, all were alive then.

System: nude mice, LOX melanoma ip, survival T/C
Assay: NCI In Vivo Anticancer Drug Screen. Data for tumor model Human Amelanotic Melanoma (LOX) (intraperitoneal) in NU/NU BALB/C (nude) mice
Settings: T/C endpoint: median survival time, higher T/C = longer survival
Experimental: The antitumor activity of compounds was measured in mice bearing transplantable tumors. Survival or tumor size were measured and the results are expressed as the measurement made in the treated group (T) divided by the measurement made in the vehicle treated control group (C). The tumor model used in this assay is Human Amelanotic Melanoma (LOX) (intraperitoneal) in NU/NU BALB/C (nude) mice

[1] = dose: 25.0 mg/kg/injection, schedule: Q04DX003 (ip), vehicle: saline with Tween-80
[2] = dose: 100.0 mg/kg/injection, schedule: Q04DX003 (ip), vehicle: saline with Tween-80
[3] = dose: 400.0 mg/kg/injection, schedule: Q04DX003 (ip), vehicle: saline with Tween-80
[4] = dose: 200.0 mg/kg/injection, schedule: Q04DX003 (ip), vehicle: saline with Tween-80
[5] = dose: 300.0 mg/kg/injection, schedule: Q04DX003 (ip), vehicle: Klucel (hydroxypropylcellulose) (HPC)
[6] = dose: 75.0 mg/kg/injection, schedule: Q04DX003 (ip), vehicle: Klucel (hydroxypropylcellulose) (HPC)
[7] = dose: 150.0 mg/kg/injection, schedule: Q04DX003 (ip), vehicle: Klucel (hydroxypropylcellulose) (HPC)

With `CC[C@@]1(O)C(=O)OCc2c1cc1n(c2=O)Cc2cc3ccccc3nc2-1` the survivor count (dose: 10.0 mg/kg/injection, schedule: Q04DX003 (ip), vehicle: saline with Tween-80) was 3 of 6 on day 10, the survivor count (dose: 20.0 mg/kg/injection, schedule: Q04DX003 (ip), vehicle: saline with Tween-80) was 0 of 6 on day 10 and the survivor count (dose: 40.0 mg/kg/injection, schedule: Q04DX003 (ip), vehicle: saline with Tween-80) was 0 of 6 on day 10. The survivor count (dose: 80.0 mg/kg/injection, schedule: Q04DX003 (ip), vehicle: saline with Tween-80) was 0 of 6 on day 10.

For `O=C1C=CC(=CC=C2C=CN(CCCCCCCCCCCO)C=C2)C=C1`, the T/C [1] was 134 % of control, the T/C [2] was 110, 132, 142, 163 % of control and the survivor count [3] was 0 of 6 on day 10.

For `Cc1cccc(OCC(O)CN2CC2)c1` (stereo unspecified), the T/C [1] was 128 % of control, the T/C [2] was 128 % of control and the T/C [4] was 145 % of control. The survivor count [3] was 0 of 6 on day 10 and 1 of 6 on day 10.

`CC(CNC(=O)C12CC3CC(CC(C3)C1)C2)NC(=O)C12CC3CC(CC(C3)C1)C2` (stereo unspecified) was tested, and the survivor count (dose: 400.0 mg/kg/injection, schedule: Q04DX003 (ip), vehicle: DMSO) was 6 of 6 on day 10.

`[N-]=[N+]=[N-]` was tested, and the survivor count (dose: 6.0 mg/kg/injection, schedule: Q04DX003 (ip), vehicle: water) was 4 of 6 on day 10.

With `N=C(N)SCc1cccc2c(=O)cc(-c3ccccc3)oc12` the T/C (dose: 200.0 mg/kg/injection, schedule: Q04DX003 (ip), vehicle: suspension in saline) was 134 % of control.

For `O=NNc1cnccn1`, the T/C (dose: 7.5 mg/kg/injection, schedule: Q03HX008 (ip), vehicle: other) was 125 % of control, the T/C (dose: 16.9 mg/kg/injection, schedule: Q03HX008 (ip), vehicle: other) was 145 % of control and the T/C (dose: 25.0 mg/kg/injection, schedule: Q04DX003 (ip), vehicle: water) was 128 % of control. The T/C (dose: 25.3 mg/kg/injection, schedule: Q01DX005 (iv), vehicle: other) was 132 % of control, the T/C (dose: 29.7 mg/kg/injection, schedule: Q04DX003 (ip), vehicle: water) was 131 % of control and the survivor count (dose: 38.0 mg/kg/injection, schedule: Q03HX008 (ip), vehicle: other) was 4 of 10 on day 14. The T/C (dose: 38.0 mg/kg/injection, schedule: Q04DX003 (ip), vehicle: other) was 131 % of control, the T/C (dose: 38.0 mg/kg/injection, schedule: Q08DX002 (ip), vehicle: other) was 138 % of control and the survivor count (dose: 57.0 mg/kg/injection, schedule: Q03HX008 (ip), vehicle: other) was 0 of 10 on day 14. The T/C (dose: 57.0 mg/kg/injection, schedule: Q08DX002 (ip), vehicle: other) was 145 % of control, the T/C (dose: 85.4 mg/kg/injection, schedule: Q01DX001 (ip), vehicle: other) was 125 % of control and the survivor count (dose: 85.4 mg/kg/injection, schedule: Q01DX005 (iv), vehicle: other) was 10 of 10 on day 14. The T/C (dose: 128.0 mg/kg/injection, schedule: Q01DX001 (iv), vehicle: other) was 133 % of control, the survivor count (dose: 128.0 mg/kg/injection, schedule: Q01DX005 (iv), vehicle: other) was 0 of 10 on day 14 and the T/C (dose: 192.0 mg/kg/injection, schedule: Q01DX001 (iv), vehicle: other) was 135 % of control. The survivor count (dose: 192.0 mg/kg/injection, schedule: Q04DX003 (ip), vehicle: other) was 10 of 10 on day 14, the survivor count (dose: 192.0 mg/kg/injection, schedule: Q04DX003 (iv), vehicle: other) was 10 of 10 on day 14 and the survivor count (dose: 287.8 mg/kg/injection, schedule: Q01DX001 (ip), vehicle: other) was 10 of 10 on day 14. The survivor count (dose: 287.8 mg/kg/injection, schedule: Q01DX001 (iv), vehicle: other) was 7 of 10 on day 14 and the survivor count (dose: 287.8 mg/kg/injection, schedule: Q08DX002 (ip), vehicle: other) was 10 of 10 on day 14.

For `CCCCCNc1ncnc2c(C)[nH]nc12`, the survivor count [5] was 2 of 6 on day 10.

With `CO[C@@H]1C2=CC=CC=C[C@H]2n2c(=O)n(C)c(=O)n21` the survivor count (dose: 300.0 mg/kg/injection, schedule: Q04DX003 (ip), vehicle: other) was 1 of 6 on day 10 and the survivor count (dose: 600.0 mg/kg/injection, schedule: Q04DX003 (ip), vehicle: other) was 0 of 6 on day 10.

`COC1CC2C=C(C)/C=C/C=C/C(=O)NC(c3ccccc3)C/C=C/CCC(O)CC(=O)C2=C1O` (stereo unspecified) was tested, and the T/C [6] was 125 % of control, the T/C [7] was 139 % of control and the survivor count [5] was 3 of 6 on day 10.

With `CCOC(=O)c1ccc(NN=NCCF)cc1` the survivor count (dose: 1200.0 mg/kg/injection, schedule: Q04DX003 (ip), vehicle: distilled water + Tween-80 + alcohol) was 3 of 6 on day 10.

In the case of `NC(N)=NS(=O)(=O)c1ccc(NCc2c3ccccc3nc3ccccc23)cc1`, the T/C [6] is reported as 149 % of control, the T/C [7] is reported as 129 % of control and the T/C [5] is reported as 134 % of control.

In the case of `CC[C@@]1(O)C(=O)OCc2c1cc1n(c2=O)Cc2cc3c(N)cccc3nc2-1`, the survivor count (dose: 6.67 mg/kg/injection, schedule: Q04DX003 (ip), vehicle: saline with Tween-80) is reported as 3 of 6 on day 10 and the survivor count (dose: 8.0 mg/kg/injection, schedule: Q04DX003 (ip), vehicle: saline with Tween-80) is reported as 2 of 6 on day 10.

In the case of `C=Cc1cc(OC)c2c(c1)c(=O)oc1c2cc(OC)c2c(O)ccc(C3OC(C)C(O)C(C)(O)C3O)c21` (stereo unspecified), the T/C (dose: 37.5 mg/kg/injection, schedule: Q04DX003 (ip), vehicle: DMSO) is reported as 133 % of control, the T/C (dose: 75.0 mg/kg/injection, schedule: Q04DX003 (ip), vehicle: DMSO) is reported as 145 % of control [5 of 6 alive on day 10] and the T/C (dose: 150.0 mg/kg/injection, schedule: Q04DX003 (ip), vehicle: DMSO) is reported as 127 % of control. For the same compound, the survivor count (dose: 300.0 mg/kg/injection, schedule: Q04DX003 (ip), vehicle: DMSO) was 3 of 6 on day 10.

In the case of `Nc1ccn([C@@H]2C=C(CO)[C@@H](O)[C@H]2O)c(=O)n1`, the T/C (dose: 0.5 mg/kg/injection, schedule: Q01DX009 (ip), vehicle: saline) is reported as 147 % of control, the T/C (dose: 2.0 mg/kg/injection, schedule: Q01DX009 (ip), vehicle: saline) is reported as 146 % of control and the survivor count (dose: 4.0 mg/kg/injection, schedule: Q01DX009 (ip), vehicle: saline) is reported as 6 of 6 on day 10. For the same compound, the survivor count (dose: 8.0 mg/kg/injection, schedule: Q01DX009 (ip), vehicle: saline) was 0 of 6 on day 10.

In the case of `CC1(O)C=CC(=O)C=C1`, the survivor count (dose: 100.0 mg/kg/injection, schedule: Q04DX003 (ip), vehicle: water) is reported as 1 of 6 on day 10.

`Clc1cccc(Cl)c1C(Nc1nncs1)Nc1nncs1` was tested, and the T/C [4] was 126 % of control, the survivor count [3] was 1 of 6 on day 10 and the survivor count (dose: 800.0 mg/kg/injection, schedule: Q04DX003 (ip), vehicle: saline with Tween-80) was 0 of 6 on day 10.

`COc1ccc(N=N/N=c2\sc3cc(OC)ccc3n2C)cc1` was tested, and the T/C (dose: 60.0 mg/kg/injection, schedule: Q04DX003 (ip), vehicle: saline with Tween-80) was 128 % of control and the survivor count (dose: 240.0 mg/kg/injection, schedule: Q04DX003 (ip), vehicle: saline with Tween-80) was 2 of 6 on day 10.

`C=CCOc1cc2c(cc1C(C)c1ccc(OC)cc1)OCO2` (stereo unspecified) was tested, and the T/C (dose: 600.0 mg/kg/injection, schedule: Q04DX003 (ip), vehicle: Klucel (hydroxypropylcellulose) (HPC)) was 142 % of control.

In the case of `CCN(CC)CC(C)(C)C(=O)/C=C/c1ccc(/C=C/C(=O)C(C)(C)CN(CC)CC)cc1`, the T/C (dose: 60.0 mg/kg/injection, schedule: Q04DX003 (ip), vehicle: saline) is reported as 132 % of control [5 of 6 alive on day 10] and the survivor count (dose: 120.0 mg/kg/injection, schedule: Q04DX003 (ip), vehicle: saline) is reported as 0 of 6 on day 10.

In the case of `CC(=O)O[C@H]1C(=O)[C@@]2(C)C(C(OC(=O)c3ccccc3)[C@]3(O)C[C@H](OC(=O)C(OC(=O)CCCC(=O)NCCCN(C)C)C(NC(=O)c4ccccc4)c4ccccc4)C(C)=C1C3(C)C)C1(OC(C)=O)COC1C[C@@H]2O` (stereo partly specified), the T/C (dose: 2.5 mg/kg/injection, schedule: Q01DX009 (ip), vehicle: water) is reported as 139 % of control, the T/C (dose: 5.0 mg/kg/injection, schedule: Q01DX009 (ip), vehicle: water) is reported as 149 % of control and the survivor count (dose: 40.0 mg/kg/injection, schedule: Q01DX009 (ip), vehicle: water) is reported as 7 of 10 on day 10 and 9 of 10 on day 14.
